Values quoted from earlier work as cited in patent US12370241B2, “Nasal powder formulation for treatment of hypoglycemia” (AMPHASTAR PHARMACEUTICALS, INC., priority 2015, dated 2025).

Conditions: water; cited from earlier work

**Q.** With `OC[C@H]1O[C@@H]2O[C@H]3[C@H](O)[C@@H](O)[C@@H](O[C@H]4[C@H](O)[C@@H](O)[C@@H](O[C@H]5[C@H](O)[C@@H](O)[C@@H](O[C@H]6[C@H](O)[C@@H](O)[C@@H](O[C@H]7[C@H](O)[C@@H](O)[C@@H](O[C@H]1[C@H](O)[C@H]2O)O[C@@H]7CO)O[C@@H]6CO)O[C@@H]5CO)O[C@@H]4CO)O[C@@H]3CO` [α-CD, α (alpha)-cyclodextrin] as the molecule, how does the Aqueous solubility read?
**A.** about 5 wt %
